Values quoted from earlier work, collected in patent publication US12268669B2, “Pharmaceutical compositions and methods comprising a combination of a benzoxazole transthyretin stabilizer and an additional therapeutic agent” (Pfizer Inc., priority 2018, dated 2025).
At least one structure is not confirmed: it was looked up by name or label, or the drawing left a doubt.

System: amyloid fibril
Details: murine in vitro model; cited from earlier work

Structure (SMILES): C[C@H]1c2cccc(O)c2C(=O)C2=C(O)[C@]3(O)C(=O)C(C(N)=O)=C(O)[C@@H](N(C)C)[C@@H]3[C@@H](O)[C@@H]21 [Doxycycline, doxycycline]
- amyloid fibril disrupting activity: amyloid fibril disrupting activity
